Source: article PMC10163288
The list shows a part of the results.

B1: il2ra_site2_3nfp_sap_19_mot_HHH_b1_06613_af2_000000098_0001_23_40_H_._72a79b14e1a0e827e78e129a6f5f8f0c_0001_1_0001_0000400032_0000001_0_0001_af2pred_0001_af2pre … (protein)
chain: SSSSDEEELRREVEELLERAKETEDPEERRLLLLLALDLALRNKDEELEELVKKVKEELGSSSSS
B2: il2ra_site2_3nfp_normal_mot_HHH_b2_01155_000000159_0001_38_52_H_._HHH_b2_02721_0001_0000400046_0000001_0 (protein)
chain: SSSDEEEERVEKLLEEAKELLERGDPEEAQEVLREATHLAYKLGNSELFFLIAELAFKILQSSSS
B3: il2ra_site2_2erj_sap_24_mot_4428453eb85d3cbdb794fa6b82d21c19_0001_000000044_0001_14_30_H_._7b66ed016c170d635ef469617b4fe817_0001_0001_0000200012_0000001_1_0001 (protein)
chain: SSSSSYEELRELMKLAAEARALAYEGNPEEAREILEEALRLARELNSDNAREVLERLLEELSSSS
B4: il2ra_site2_2erj_normal_mot_ems_3hC_1315_af2_000000245_0001_45_63_H_._HHH_b1_08295_0001_0000300032_0000001_0 (protein)
chain: SSSDEEEEEELEEFVEELVRKYGLDEYVKAFLRRLVKYALENGASEEIIKEALELSVRQVKSSSS
B5: il2ra_site1_3nfp_normal_mot_HHH_b2_00819_af2_000000158_0001_1_19_H_._HHH_b2_05746_0001_0000500011_0000001_0_af2pred_0001_af2pred (protein)
chain: SSSSSSSEELLEEAEKRLEELLREGDYKEALKLAEEVLRLLAKLGNPELAKELAELALKLSSSSS
B6: il2ra_site2_3nfp_normal_mot_HHH_b1_01086_000000225_0001_20_36_H_._HHH_b1_02572_0001_0000600045_0000001_1 (protein)
chain: SSSSDVEERVQELIEEIEEISDPERRKELLREATNLVYQIPDEEEAFRLFAALADLAAELFSSSS
B7: il2ra_site1_2b5i_normal_mot_f5ff40796168375b462bec8614a1db4a_0001_1_000000138_0001_53_65_H_._HHH_b2_05915_0001_0000600017_0000001_0_af2pred_dldesign_0_af2pred (protein)
chain: SSSSSSESPREVAERLIAEAEKEKDKNLAYKILKMALKVARKGNDPELAAEIEEKLKKISSSSSS
B8: il2ra_site2_3nfp_normal_mot_HHH_b1_06797_000000164_0001_24_40_H_._HHH_b2_07494_0001_0000200016_0000001_0 (protein)
chain: SSSSKAEEYLEAVRILLRRALELGDEEAARTSVHAALLLAEALRDEETVKELEEILEELNSSSSS
B9: il2ra_site2_2erj_normal_mot_HHH_b2_02154_af2_000000141_0001_43_57_H_._HHH_b1_05944_af2_0001_0000300035_0000001_0_af2pred_0001_1_af2pred_swapped (protein)
chain: SSSSSELEEFIEELVEKFNLSEEAERELRLLARLLLERGVDEEEIKLTLELLARMHEDQLSSSSS
B10: il2ra_site2_2erj_normal_mot_af86707857d369f3e1d85dcabc5f9321_0001_000000201_0001_14_29_H_._HHH_b2_03838_af2_0001_0000200004_0000001_1 (protein)
chain: SSSSSSSEEEEAEELTEEAKKIEDPEEALRVLSEAFALAYRVGDHELAAEVIELTHRLNSSSSSS
B11: il2ra_site1_2b5i_sap_24_mot_d0d27a57e4302dd0dd5ebafbde421892_0001_1_000000227_0001_37_51_H_._09e13f331d2c82047205c4dfe4f1b614_0001_1_af2_0001_0000200022_0000001 … (protein)
chain: SSSSSSDIDKVLAEARELAAAGRRREALELLEELYKEAGAKDDEENQEKIEDLARELASSSSSSS
B12: il2ra_site2_3nfp_normal_mot_HHH_b1_01289_000000235_0001_39_52_H_._HHH_b1_02970_af2_0001_0000100013_0000001_0 (protein)
chain: SSSSDEEESELIELAYEALRLAAEGNPEEAREVLEEALEIAEENGDPLAERIREFIEAFGSSSSS
B13: il2ra_site2_3nfp_sap_19_mot_HHH_b2_00992_af2_000000224_0001_1_18_H_._HHH_b2_03402_0001_0000100011_0000001_0_0001_af2pred_0001_1_af2pred_swapped (protein)
chain: SSSSSSSYKEAVEAALRFARKVEDEELVKIALEYARAVALMANDPELRELVEEAEERLSSSSSSS
B14: il2ra_site1_2b5i_sap_11_mot_HHH_b1_05608_000000027_0001_1_14_H_._HHH_b2_03832_af2_0001_0000100008_0000001_0_0001 (protein)
chain: SSSNERTFKAAERLLEEAIEDLREKGDEEVVEELEELLEEAKRKGDKRILREAMHVAQRALSSSS
B15: il2ra_site2_3nfp_sap_30_mot_HHH_b1_02813_000000037_0001_41_57_H_._ad6158629c6fd226c14646e2effd3054_0001_1_af2_0001_0000300022_0000001_0_0001 (protein)
chain: SSSSDLIEAVVESARHRLEKLNTEEAEELLERLEELLEEYREKGDPRIAIEVYELVRRIYSSSSS
B16: il2ra_site1_1z92_normal_mot_07d2d8a42fb0c6931fb03626c2a0eeb8_0001_000000072_0001_36_50_H_._f0ee23d083d0677da3dfcc8a6cd225b6_0001_af2_0001_0000100001_0000001_0 (protein)
chain: SEEEEEIEEEIKQVPDPVIREVLEILLRLIRLGDPSARFALEQLLKKLRQGNPRAARRIAEKLLR
B17: il2ra_site1_3nfp_sap_10_mot_HHH_b1_03420_af2_000000029_0001_41_57_H_._HHH_b2_06732_af2_0001_0000200008_0000001_0_0001_af2pred_0001_af2pred_1 (protein)
chain: SSSSDIEEAQELAKEVLKLLREGDKEEAEKVLEELEEIAEKRNSKVAKIFVERLKRLLERRSSSS
B18: il2ra_site1_3nfp_normal_mot_HHH_b1_05523_000000027_0001_1_19_H_._HHH_b1_07881_af2_0001_0000100003_0000001_0_af2pred_0001_af2pred_1 (protein)
chain: SSSSTEVSRRVLELIEEALELAQNGNPEEAEEVLREALKLAEEAGNESTARFIRKALEQSSSSSS

molecular target: il2ra, P01589; test: yeast display titration

Apparent Kd, inactive:
B1 no binding seen
B2 no binding seen
B3 no binding seen
B4 no binding seen
B5 no binding seen
B6 no binding seen
B7 no binding seen
B8 no binding seen
B9 no binding seen
B10 no binding seen
B11 no binding seen
B12 no binding seen
B13 no binding seen
B14 no binding seen
B15 no binding seen
B16 > 8.93 nM
B17 no binding seen
B18 no binding seen

2 records drawn at random from the list so far:
Apparent Kd, inactive:
B14 no binding seen
B1 no binding seen
